Data: PubChem BioAssay AID1347076 (National Center for Advancing Translational Sciences (NCATS), 2019)
The campaign covered roughly 400,000 compounds. About 13,000 (3.2%) were called active. The shares of active, inactive and inconclusive entries below differ from those in the screen. Calls come from the whole dose curve; as a rule, active = well fitted cell-killing curve with a large enough effect; inconclusive = small, poorly fitted or top-dose-only effect, or effect the other way; inactive = flat fitted curve, though single readings scatter. Where the call is inconclusive, the potency comes from a doubtful curve fit. *1 amine or outer side, *2 acyl side, *3 side chain or, on linkers, in order; H or OH if unused. Where a SMILES comes first, the peptide text is derived from it. Bridges are numbered along the chain shown (N, C = ends). [ ]: non-standard residue; d: D form. ξ: configuration not given here. X1 = CC[C@H](CCC[C@@H](O)[C@@H](C)C(=O)O[C@H](C)[C@@H](C)C/C=C(C)/C(=C\C(=O)[*:1])OC)O[*:2]; NMeξIle = CC[C@H](C)C(NC)C(=O)O; NMeV = CN[C@H](C(=O)O)C(C)C; NMeS = CN[C@@H](CO)C(=O)O

Assay: qHTS assay for MDR1-selective chemotherapeutics: Primary screen using the drug-selected MDR subline cells KB-V1; note: nearly all actives have a fitted effect of over 60% in size
Details: KB-V1 MDR cells viability, CellTiter-Glo, 72 h; series mostly up to 46.1 µM
Outline: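 Cytotoxicity via CellTiter-Glo luminescence after 72 h compound exposure at 37 degrees C. Cells: drug-selected KB-V1 line, DMEM phenol-red free plus 10% FBS. Compounds tested at multiple concentrations; normalized data fitted to concentration-effect curves.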
Potency is the fitted concentration of half-maximal effect.

Structure (SMILES)	Potency
Cc1cccn2c(=O)nc(SCC(=O)N3CC(C)OC(C)C3)nc12 (stereo not drawn)	inconclusive: 14.6 µM [rising, partial curve, poor fit]
COc1cc(OC)cc(C(=O)N[C@H](C(=O)OCC(=O)Nc2ccc(F)c(F)c2)C(C)C)c1	inconclusive: 8.2 µM [cytotoxic, partial curve]
COC(=O)CSC1=C(C#N)C(c2cccc(F)c2)CC(=O)N1 (stereo not drawn)	inconclusive: 20.6 µM [cytotoxic, single point]
Cc1cc(Nc2ccc(F)cc2C)n2ncnc2n1	inactive
Nc1nc(C(F)(F)F)cc(=O)n1N	inconclusive: 20.6 µM [rising, partial curve, poor fit]
Cc1ccc(S(=O)(=O)N2[C@@H](CO)CO[C@H]2CC(=O)OCc2ccccc2)cc1	inconclusive: 18.4 µM [cytotoxic, partial curve]
Cc1cc(C)c(C)c(S(=O)(=O)N2CCN(C(=O)C3CCC3)CC2)c1C	inconclusive: 29.1 µM [cytotoxic, single point]
C=CCNC(=O)/C(C#N)=C/c1c(N2CCN(c3cccc(Cl)c3)CC2)nc2c(C)cccn2c1=O	inconclusive: 4.61 µM [cytotoxic, full curve, poor fit]
COc1ccc(-c2cc(C(F)(F)F)nc(NCc3ccccc3)n2)cc1	inconclusive: 23.1 µM [cytotoxic, single point]
CCCCCCn1c(SCC(C)C)nc2c1c(=O)[nH]c(=O)n2C	active: 10.3 µM
O=c1ccn([C@H]2C[C@H](O)[C@@H](CO)O2)c(=O)[nH]1	inconclusive: 25.9 µM [rising, single point]
N#Cc1ccc(-c2nc3ccc(Cl)cn3c2Cc2ccccc2)cc1	inactive
COC(=O)c1cc(OC)c(OC)cc1NC(=O)c1c(-c2ccccc2)noc1C	inconclusive: 35.5 µM [cytotoxic, single point]
COc1cccc(NC(=O)C(=O)NCC(c2ccc3c(c2)OCO3)N2CCOCC2)c1 (stereo not drawn)	inactive
Cc1ccc(S(=O)(=O)N2CCCCC2CCNC(=O)C(=O)NCc2ccco2)cc1 (stereo not drawn)	inconclusive: 23.1 µM [cytotoxic, single point]
NC(=S)N=Nc1c(O)n(Cc2ccc(F)cc2)c2ccccc12	inactive
OCC1(Cc2ccccc2)CCN(Cc2ccc(C(F)(F)F)cc2)CC1	inconclusive: 13 µM [cytotoxic, partial curve, poor fit]
CN(Cc1ccccc1)C(C(=O)NC1CCCCC1)c1ccc(Cl)cc1 (stereo not drawn)	inactive
CCc1ccc(NC(=S)NC2CC3CCC(C2)N3Cc2ccco2)cc1 (stereo not drawn)	inconclusive: 16.4 µM [cytotoxic, partial curve]
CCOC(=O)c1cnc2c(OC)cccc2c1NCc1cccnc1	inactive
Cc1ccc(N2C(=O)c3ccccc3NC2C(C)Cc2ccc3c(c2)OCO3)cc1 (stereo not drawn)	inconclusive: 14.1 µM [cytotoxic, partial curve]
CC1CCCC(C)N1CC(O)COc1c(F)cc(Br)cc1F (stereo not drawn)	inconclusive: 29.1 µM [cytotoxic, single point]
CC1CCCCC1NC(=O)c1ccc2c(c1)OCCO2 (stereo not drawn)	inconclusive: 13 µM [cytotoxic, partial curve]

Structure (SMILES)	Potency
CCc1n[nH]c(=S)n1/N=C/c1c(C)nn(-c2ccccc2)c1Cl	active: 1.3 µM
C#CCSC1=C(C#N)C(c2cccs2)C(C(=O)OCC)=C(C)N1 (stereo not drawn)	active: 10.3 µM
COc1ccc(-c2nc3ccccn3c2C=O)cc1	inconclusive: 18.4 µM [cytotoxic, single point]
CCOC(=O)CC1(NC(=O)c2cc(COc3cncc(Cl)c3)on2)CCCCC1	inconclusive: 6.51 µM [cytotoxic, full curve, poor fit]
O=C1NC[C@H](c2ccccc2)OC(=O)[C@@H](Cc2ccc(F)cc2)CC/C=C/C[C@H]1CC(=O)N(CCO)Cc1ccccc1	inconclusive: 29.1 µM [cytotoxic, single point]
Cc1ccc2cccnc2c1NC(=S)NC(=O)c1ccccc1	active: 14.6 µM
CN1CCN(c2oc(-c3ccc(OCc4ccc(Cl)cc4)cc3)nc2C#N)CC1	inactive
O=C(CN1c2cccc3cccc(c23)S1(=O)=O)NCc1ccccc1Cl	inactive
CC[C@@H]1CCC[C@@H](O)[C@@H](C)C(=O)O[C@H](C)[C@@H](C)C/C=C(C)/C(OC)=C\C(=O)N(C)C([C@@H](C)CC)C(=O)N(C)[C@@H](C(C)C)C(=O)N(C)[C@@H](COC)C(=O)N2CCC[C@H]2C(=O)N(C)[C@@H](C(C)C)C(=O)N2CCC[C@H]2C(=O)O1 (stereo partly drawn) ([NMeξIle][NMeV][NMeS](Me)P[NMeV]P; linker N-C via X1)	active: 1.84 µM
Cc1ccccc1N(CC(=O)NC1CCCCC1)C(=O)CNC(=O)c1cccs1	inconclusive: 29.1 µM [cytotoxic, single point]
O=c1cc(N2CCCCC2)c(-c2ccccc2)nn1Cc1ccc(F)cc1	inactive
CC(C)(C)OC(=O)N1CCC[C@H]1C(=O)NCc1ccc(Cl)cc1Cl	inconclusive: 23.1 µM [cytotoxic, partial curve]
N#C/C(=C\c1ccc(Br)cc1)c1nc(-c2cc3cc(Br)ccc3oc2=O)cs1	inconclusive: 29.1 µM [rising, single point]
CCNC(=O)C1(C)CCN(Cc2ccc(C(=O)OCC)o2)C1 (stereo not drawn)	inactive
O=C(CSc1ccc(-c2nc3ccccc3[nH]2)cn1)Nc1ccc(S(=O)(=O)N2CCCC2)cc1	inconclusive: 14.6 µM [cytotoxic, partial curve]
C/C(=N\NC(=O)Cn1c(-c2ccccn2)nc2ccccc21)c1ccccc1	inconclusive: 8.2 µM [cytotoxic, partial curve]
Cc1ccc(OCCN2CCN(C(=O)CCC(=O)Nc3nnc(CC(C)C)s3)CC2)cc1	active: 8.2 µM
Cc1c(C(=O)NCc2nnc(-c3ccccc3)o2)oc2c(F)cccc12	inconclusive: 29.1 µM [cytotoxic, single point]
O=C1C=C(c2ccc(-c3ccccc3)cc2)C[C@@H](c2ccc3c(c2)OCO3)C1	inconclusive: 14.6 µM [rising, single point]
CCOc1cc(C2C(C#N)=C(N)OC(C)=C2C(C)=O)c(Br)c(Br)c1OC(C)C (stereo not drawn)	active: 14.6 µM
CC(=O)c1ccc(-c2cnc3c(NC=O)cc(-c4cnn(C)c4)cn23)cc1	inconclusive: 18.4 µM [cytotoxic, partial curve]
O=c1c2ccccc2nc2c3ccccc3c(NCc3ccco3)nn12	inconclusive: 6.51 µM [cytotoxic, full curve]
CC(=O)c1ccc2c(c1)C1C=CCC1C(c1ccncc1)N2 (stereo not drawn)	active: 23.1 µM

In a second layout: entries from further up.
Structure (SMILES) | Potency
Cc1ccc2cccnc2c1NC(=S)NC(=O)c1ccccc1 | active: 14.6 µM
CN1CCN(c2oc(-c3ccc(OCc4ccc(Cl)cc4)cc3)nc2C#N)CC1 | inactive
O=C(CN1c2cccc3cccc(c23)S1(=O)=O)NCc1ccccc1Cl | inactive
CC[C@@H]1CCC[C@@H](O)[C@@H](C)C(=O)O[C@H](C)[C@@H](C)C/C=C(C)/C(OC)=C\C(=O)N(C)C([C@@H](C)CC)C(=O)N(C)[C@@H](C(C)C)C(=O)N(C)[C@@H](COC)C(=O)N2CCC[C@H]2C(=O)N(C)[C@@H](C(C)C)C(=O)N2CCC[C@H]2C(=O)O1 (stereo partly drawn) ([NMeξIle][NMeV][NMeS](Me)P[NMeV]P; linker N-C via X1) | active: 1.84 µM
Cc1ccccc1N(CC(=O)NC1CCCCC1)C(=O)CNC(=O)c1cccs1 | inconclusive: 29.1 µM [cytotoxic, single point]
O=c1cc(N2CCCCC2)c(-c2ccccc2)nn1Cc1ccc(F)cc1 | inactive
CC(C)(C)OC(=O)N1CCC[C@H]1C(=O)NCc1ccc(Cl)cc1Cl | inconclusive: 23.1 µM [cytotoxic, partial curve]
N#C/C(=C\c1ccc(Br)cc1)c1nc(-c2cc3cc(Br)ccc3oc2=O)cs1 | inconclusive: 29.1 µM [rising, single point]
CCNC(=O)C1(C)CCN(Cc2ccc(C(=O)OCC)o2)C1 (stereo not drawn) | inactive
O=C(CSc1ccc(-c2nc3ccccc3[nH]2)cn1)Nc1ccc(S(=O)(=O)N2CCCC2)cc1 | inconclusive: 14.6 µM [cytotoxic, partial curve]
C/C(=N\NC(=O)Cn1c(-c2ccccn2)nc2ccccc21)c1ccccc1 | inconclusive: 8.2 µM [cytotoxic, partial curve]
Cc1ccc(OCCN2CCN(C(=O)CCC(=O)Nc3nnc(CC(C)C)s3)CC2)cc1 | active: 8.2 µM
Cc1c(C(=O)NCc2nnc(-c3ccccc3)o2)oc2c(F)cccc12 | inconclusive: 29.1 µM [cytotoxic, single point]
O=C1C=C(c2ccc(-c3ccccc3)cc2)C[C@@H](c2ccc3c(c2)OCO3)C1 | inconclusive: 14.6 µM [rising, single point]
CCOc1cc(C2C(C#N)=C(N)OC(C)=C2C(C)=O)c(Br)c(Br)c1OC(C)C (stereo not drawn) | active: 14.6 µM
CC(=O)c1ccc(-c2cnc3c(NC=O)cc(-c4cnn(C)c4)cn23)cc1 | inconclusive: 18.4 µM [cytotoxic, partial curve]
O=c1c2ccccc2nc2c3ccccc3c(NCc3ccco3)nn12 | inconclusive: 6.51 µM [cytotoxic, full curve]

Following part

Structure (SMILES)	Potency
O=C(NCc1ccc(C(F)(F)F)cc1)C1CC(c2ccc(C(F)(F)F)cc2)=NO1 (stereo not drawn)	inconclusive: 29.1 µM [cytotoxic, single point]
O=C(O)c1ccc(Cl)c(S(=O)(=O)N(Cc2ccccc2)c2ccc(F)cc2)c1	inconclusive: 29.1 µM [rising, single point]
CCc1ccccc1N(C)S(=O)(=O)c1ccc2[nH]cc(C(=O)NCCOC)c(=O)c2c1	inactive
O=C(C[n+]1cc(Br)cc(Br)c1)c1ccc2ccccc2c1	inactive
Cc1n[nH]c(C)c1S(=O)(=O)N1CCC(C(=O)Nc2cccc(F)c2)CC1	inconclusive: 29.1 µM [rising, single point]
CCCNC(=O)C1(C)CCN(C(=O)c2c(Cl)cccc2Cl)C1 (stereo not drawn)	inactive
CC(=O)/C(=C\Nc1ccc(OCc2ccccc2)cc1)c1ccccc1	inconclusive: 20.6 µM [cytotoxic, single point]
COc1ccc(NC(=O)c2sc3nc4c(cc3c2N)CCCCCC4)cc1Cl	inactive
COc1ccc(C(C#N)CC(=O)c2ccc3c(c2)OCO3)cc1OC (stereo not drawn)	inconclusive: 16.4 µM [cytotoxic, single point]
CCOC(=O)N(C)c1c(CC)nc2c(OCc3ccccc3)cccn12	inconclusive: 2.91 µM [cytotoxic, full curve, poor fit]
O=c1c([N+](=O)[O-])c(N2CCOCC2)c2ccccc2n1-c1ccccc1	inconclusive: 29.1 µM [rising, single point]
CC1(C)CC(N2CCCC2)=CC(=[N+]2CCCC2)C1	inactive
O=C(c1ccc(-n2c(SCc3cc(F)ccc3F)nc3ccccc3c2=O)cc1)N1CCOCC1	active: 0.651 µM
COc1ccccc1C(=O)n1nc(-c2ccccc2)nc1NCc1ccco1	inconclusive: 14.6 µM [cytotoxic, partial curve]
O=[N+]([O-])c1ccccc1Sc1nccn1Cc1ccccc1	inconclusive: 18.4 µM [cytotoxic, partial curve, poor fit]
CC(C)C(=O)NNC(=O)c1ccccn1	inconclusive: 13 µM [cytotoxic, partial curve, poor fit]
Cc1ccc(C(=O)N2CCN(c3ccc(C(F)(F)F)cn3)CC2)o1	active: 20.6 µM
Cc1cccc(NC(=O)CN2CCC(NC(=O)C3CCCCC3)CC2)c1C	inconclusive: 23.1 µM [cytotoxic, single point]
CCN(CCC(=O)Nc1ccc(Br)c(C)c1)Cc1ccccc1	inconclusive: 41.1 µM [cytotoxic, single point]
Cc1noc(C)c1C(=O)OCC(=O)Nc1ncc(Cl)c(C)c1Cl	inconclusive: 29.1 µM [rising, single point]
CCN(CC)CCNC(=O)C(Oc1ccccc1)Oc1ccccc1	inactive
Cc1nc2ncnn2c(C)c1CCC(=O)N1CCN(Cc2ccccc2)CC1	inactive
